No constants are given. Whether binding was seen depends on the method and setting. For some assays here: In cells and extracts the contact can be indirect. Some binding calls cover weakened binding; strength is not graded here. Where a sequence is shown, tags or fusion partners need not be part of it.
T1: CLuc-IAA15 (Arabidopsis thaliana) (UniProt Q9C966)
T1 sequence: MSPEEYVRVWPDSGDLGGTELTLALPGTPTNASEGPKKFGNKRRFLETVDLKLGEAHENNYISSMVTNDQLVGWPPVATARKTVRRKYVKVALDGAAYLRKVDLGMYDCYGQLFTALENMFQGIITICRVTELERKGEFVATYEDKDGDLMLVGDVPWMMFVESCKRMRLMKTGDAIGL

By UniProt entry, the sequences of proteins in these tests, tags left out.
UniProt Q39026: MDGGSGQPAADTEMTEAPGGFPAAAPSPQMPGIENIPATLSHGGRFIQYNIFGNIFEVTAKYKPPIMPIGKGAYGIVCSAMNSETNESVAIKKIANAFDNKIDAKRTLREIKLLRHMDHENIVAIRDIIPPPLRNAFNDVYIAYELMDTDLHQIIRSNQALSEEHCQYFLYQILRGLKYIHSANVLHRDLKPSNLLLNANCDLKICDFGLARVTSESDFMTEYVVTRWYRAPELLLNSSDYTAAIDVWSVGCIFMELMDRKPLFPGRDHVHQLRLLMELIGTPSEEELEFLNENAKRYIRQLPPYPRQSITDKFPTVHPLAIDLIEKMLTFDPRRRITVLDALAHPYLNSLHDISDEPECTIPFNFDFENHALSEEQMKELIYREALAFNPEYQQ

T2: ARF19 in pAS2-1 (BD-ARF19) (Arabidopsis thaliana) (UniProt Q8RYC8)
T2 sequence: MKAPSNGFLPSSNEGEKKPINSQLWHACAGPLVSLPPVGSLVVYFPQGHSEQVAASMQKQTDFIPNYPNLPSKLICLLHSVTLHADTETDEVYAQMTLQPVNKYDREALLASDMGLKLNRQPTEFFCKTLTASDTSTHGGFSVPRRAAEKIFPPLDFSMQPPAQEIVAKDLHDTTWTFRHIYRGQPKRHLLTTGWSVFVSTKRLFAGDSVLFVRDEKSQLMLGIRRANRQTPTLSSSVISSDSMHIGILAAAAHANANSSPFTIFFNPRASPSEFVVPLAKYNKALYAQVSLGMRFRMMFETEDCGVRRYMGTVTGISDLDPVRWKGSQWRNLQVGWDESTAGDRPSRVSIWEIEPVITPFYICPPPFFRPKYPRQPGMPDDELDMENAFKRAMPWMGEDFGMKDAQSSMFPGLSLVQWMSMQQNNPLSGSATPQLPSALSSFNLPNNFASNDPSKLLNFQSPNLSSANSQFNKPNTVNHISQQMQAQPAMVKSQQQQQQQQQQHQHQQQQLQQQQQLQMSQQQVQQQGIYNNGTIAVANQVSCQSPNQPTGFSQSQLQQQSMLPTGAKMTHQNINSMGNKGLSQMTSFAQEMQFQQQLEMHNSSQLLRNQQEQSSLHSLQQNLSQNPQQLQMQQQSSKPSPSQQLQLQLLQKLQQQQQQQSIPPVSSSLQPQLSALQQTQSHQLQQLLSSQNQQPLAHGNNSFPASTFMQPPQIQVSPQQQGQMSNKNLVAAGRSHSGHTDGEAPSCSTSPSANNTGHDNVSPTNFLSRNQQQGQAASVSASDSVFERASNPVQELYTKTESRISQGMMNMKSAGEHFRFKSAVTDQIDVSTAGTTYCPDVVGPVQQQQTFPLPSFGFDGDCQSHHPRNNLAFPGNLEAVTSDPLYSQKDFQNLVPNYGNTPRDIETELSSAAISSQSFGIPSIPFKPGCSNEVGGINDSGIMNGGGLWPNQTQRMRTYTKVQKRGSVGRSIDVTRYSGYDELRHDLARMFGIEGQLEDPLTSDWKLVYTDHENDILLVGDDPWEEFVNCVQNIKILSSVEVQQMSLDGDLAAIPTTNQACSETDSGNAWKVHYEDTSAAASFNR

T3: ARF7 in pAS2-1 (BD-ARF7) (Arabidopsis thaliana) (UniProt P93022)
T3 sequence: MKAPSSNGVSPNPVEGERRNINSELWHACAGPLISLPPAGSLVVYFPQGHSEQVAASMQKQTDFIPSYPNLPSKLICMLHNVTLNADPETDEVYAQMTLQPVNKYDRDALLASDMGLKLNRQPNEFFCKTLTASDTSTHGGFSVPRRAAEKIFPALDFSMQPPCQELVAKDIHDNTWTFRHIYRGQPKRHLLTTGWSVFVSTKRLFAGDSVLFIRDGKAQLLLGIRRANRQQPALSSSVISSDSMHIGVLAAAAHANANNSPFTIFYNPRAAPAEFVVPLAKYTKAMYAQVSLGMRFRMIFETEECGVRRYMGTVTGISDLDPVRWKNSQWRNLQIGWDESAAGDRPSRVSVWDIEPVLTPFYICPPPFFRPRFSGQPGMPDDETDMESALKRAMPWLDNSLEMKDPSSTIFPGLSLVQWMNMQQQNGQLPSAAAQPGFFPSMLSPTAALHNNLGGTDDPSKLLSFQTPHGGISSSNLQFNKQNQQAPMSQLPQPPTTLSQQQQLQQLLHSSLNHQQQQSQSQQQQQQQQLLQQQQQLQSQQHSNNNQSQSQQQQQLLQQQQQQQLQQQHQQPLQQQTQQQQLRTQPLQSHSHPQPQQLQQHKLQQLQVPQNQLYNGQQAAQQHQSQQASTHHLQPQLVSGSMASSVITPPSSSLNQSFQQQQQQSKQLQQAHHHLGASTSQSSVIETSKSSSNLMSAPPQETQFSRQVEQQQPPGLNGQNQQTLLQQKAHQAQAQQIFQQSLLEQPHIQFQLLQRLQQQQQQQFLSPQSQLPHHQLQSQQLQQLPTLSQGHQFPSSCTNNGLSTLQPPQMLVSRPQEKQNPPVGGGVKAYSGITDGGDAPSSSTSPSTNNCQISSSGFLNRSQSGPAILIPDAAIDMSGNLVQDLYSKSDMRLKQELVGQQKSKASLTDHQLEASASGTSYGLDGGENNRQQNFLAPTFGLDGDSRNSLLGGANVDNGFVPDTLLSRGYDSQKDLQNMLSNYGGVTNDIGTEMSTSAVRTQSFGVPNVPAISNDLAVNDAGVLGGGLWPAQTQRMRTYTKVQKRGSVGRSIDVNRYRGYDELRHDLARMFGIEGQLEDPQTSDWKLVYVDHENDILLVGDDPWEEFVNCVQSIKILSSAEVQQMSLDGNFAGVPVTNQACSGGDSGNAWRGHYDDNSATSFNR

T4: TIR1 in pAS2-1 (BD-TIR1) (Arabidopsis thaliana) (UniProt Q570C0)
T4 sequence: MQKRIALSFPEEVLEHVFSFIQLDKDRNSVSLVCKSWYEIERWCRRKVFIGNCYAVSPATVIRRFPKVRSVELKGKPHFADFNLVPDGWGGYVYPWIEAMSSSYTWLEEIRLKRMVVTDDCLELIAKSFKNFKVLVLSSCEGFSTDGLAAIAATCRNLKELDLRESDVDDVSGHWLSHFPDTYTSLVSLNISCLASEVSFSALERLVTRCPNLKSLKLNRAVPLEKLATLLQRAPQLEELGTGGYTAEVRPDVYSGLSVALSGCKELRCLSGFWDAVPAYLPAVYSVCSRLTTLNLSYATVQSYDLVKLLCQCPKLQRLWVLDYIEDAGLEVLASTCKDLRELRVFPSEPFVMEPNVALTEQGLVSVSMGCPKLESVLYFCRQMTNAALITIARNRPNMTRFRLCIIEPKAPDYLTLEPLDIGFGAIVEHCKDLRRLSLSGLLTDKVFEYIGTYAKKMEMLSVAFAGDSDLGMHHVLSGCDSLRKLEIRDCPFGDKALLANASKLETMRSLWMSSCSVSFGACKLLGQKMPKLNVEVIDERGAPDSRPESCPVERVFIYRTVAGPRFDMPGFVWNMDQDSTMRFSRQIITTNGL

T5: MPK3 in pAS2-1 (BD-MPK3) (Arabidopsis thaliana) (UniProt Q39023)
T5 sequence: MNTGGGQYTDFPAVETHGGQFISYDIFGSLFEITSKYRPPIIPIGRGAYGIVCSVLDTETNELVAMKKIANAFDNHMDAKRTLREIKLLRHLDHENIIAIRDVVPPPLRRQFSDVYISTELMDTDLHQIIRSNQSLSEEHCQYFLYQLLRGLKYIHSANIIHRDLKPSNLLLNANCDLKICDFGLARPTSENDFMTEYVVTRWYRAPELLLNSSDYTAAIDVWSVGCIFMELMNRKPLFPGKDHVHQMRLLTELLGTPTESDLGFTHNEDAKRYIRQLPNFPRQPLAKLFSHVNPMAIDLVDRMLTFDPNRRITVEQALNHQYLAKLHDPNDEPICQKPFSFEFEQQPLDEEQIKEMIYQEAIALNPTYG


What was measured:
[1] = target: T1, CLuc-IAA15 (Arabidopsis thaliana); assay: split reporter; firefly luciferase complementation imaging (LCI) in N. benthamiana leaves; 35S::MPKs-NLuc and 35S::CLuc-IAA15; 3 days after infiltration
[2] = target: T2, ARF19 in pAS2-1 (BD-ARF19) (Arabidopsis thaliana); assay: two-hybrid; IAA15^WT or its mutant with ARF7 and ARF19 (pAS2-1, BD), yeast strain pJ69-4A
[3] = target: T3, ARF7 in pAS2-1 (BD-ARF7) (Arabidopsis thaliana); assay: as above
[4] = target: T4, TIR1 in pAS2-1 (BD-TIR1) (Arabidopsis thaliana); assay: two-hybrid; IAA15^WT or its mutants with TIR1 (pAS2-1, BD); yeast growth and beta-galactosidase assays; in the absence and presence of auxin
[5] = target: T5, MPK3 in pAS2-1 (BD-MPK3) (Arabidopsis thaliana); assay: two-hybrid; IAA15 in pGAD424 (AD), MPKs in pAS2-1 (BD), yeast strain pJ69-4A; growth on SD -L/W/H with 20 mM 3-AT (HIS3 reporter)
[6] = target: MPK6 in pAS2-1 (BD-MPK6) (Arabidopsis thaliana) (UniProt Q39026); assay: as above

| binding [1] | binding [4] | Molecule | also measured |
| --- | --- | --- | --- |
| binds |  | MPK6-NLuc (from UniProt Q39026 1-395) (enzyme) |  |
|  | binds | GST-IAA15 (natural protein, Arabidopsis thaliana, UniProt Q9C966 1-179, looked up, Auxin-responsive protein IAA15, Arabidopsis thaliana, At1g80390, full length, cloned into pGEX-4T-1; also called GST-fused IAA15; GST-IAA15^WT; source: E. coli BL21 (DE3), purified (glutathione Sepharose-4B); not shown: GST, N-terminal, kept) MSPEEYVRVWPDSGDLGGTELTLALPGTPTNASEGPKKFGNKRRFLETVDLKLGEAHENNYISSMVTNDQLVGWPPVATARKTVRRKYVKVALDGAAYLRKVDLGMYDCYGQLFTALENMFQGIITICRVTELERKGEFVATYEDKDGDLMLVGDVPWMMFVESCKRMRLMKTGDAIGL | binding [2]: binds; binding [3]: binds; binding [5]: binds; binding [6]: binds |
|  | binds | IAA15^DD (phospho-mimicking mutant, yeast two-hybrid construct) (protein, UniProt Q9C966 1-179) MDPEEYVRVWPDSGDLGGTELTLALPGDPTNASEGPKKFGNKRRFLETVDLKLGEAHENNYISSMVTNDQLVGWPPVATARKTVRRKYVKVALDGAAYLRKVDLGMYDCYGQLFTALENMFQGIITICRVTELERKGEFVATYEDKDGDLMLVGDVPWMMFVESCKRMRLMKTGDAIGL |  |
| binds |  | MPK3-NLuc (enzyme, UniProt Q39023 1-370) MNTGGGQYTDFPAVETHGGQFISYDIFGSLFEITSKYRPPIIPIGRGAYGIVCSVLDTETNELVAMKKIANAFDNHMDAKRTLREIKLLRHLDHENIIAIRDVVPPPLRRQFSDVYISTELMDTDLHQIIRSNQSLSEEHCQYFLYQLLRGLKYIHSANIIHRDLKPSNLLLNANCDLKICDFGLARPTSENDFMTEYVVTRWYRAPELLLNSSDYTAAIDVWSVGCIFMELMNRKPLFPGKDHVHQMRLLTELLGTPTESDLGFTHNEDAKRYIRQLPNFPRQPLAKLFSHVNPMAIDLVDRMLTFDPNRRITVEQALNHQYLAKLHDPNDEPICQKPFSFEFEQQPLDEEQIKEMIYQEAIALNPTYG |  |

From publication PMC9561270, “Phosphorylation of the auxin signaling transcriptional repressor IAA15 by MPKs is required for the suppression of root development under drought stress in Arabidopsis” (Nucleic Acids Research, 2022)
